This is a selection; strong and weak results do not stand in their true shares. The data scatter; read single values as rough.
The targets below were run with COC(=O)/C=C/c1ccccc1 [methyl cinnamate] (assay: log2 ratio of iodoacetamide-alkyne labeling of the cysteine site, DMSO over compound (competition); higher = stronger covalent engagement of the cysteine by the compound, active = 1 or more). Conditions: 500 µM; treatment time 1 h; system: HEK293T cell lysate.
Summary of the method: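 Three replicates, each with duplicate channels, were prepared from HEK293T lysate (2 mg/mL) treated with vehicle or electrophile at 500 µM for 1 h at ambient temperature. Iodoacetamide alkyne was then applied for 1 h, and samples were clicked to sCIP-TMT reagents, pooled, trypsin-digested overnight at 37 °C, enriched on streptavidin, acid-eluted and analysed on Orbitrap Eclipse LC-MS/MS with FAIMS, with FragPipe quantification. The log2 competition ratio per cysteine is the mean control-channel divided by the mean compound-channel reporter intensity. Cysteines quantified in only one replicate were left out.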

The chains behind the UniProt entries cited, without tags or fusion partners. Where a name states a change or a piece, a line headed by the entry shows the natural chain unless it says otherwise.
UniProt Q56VL3: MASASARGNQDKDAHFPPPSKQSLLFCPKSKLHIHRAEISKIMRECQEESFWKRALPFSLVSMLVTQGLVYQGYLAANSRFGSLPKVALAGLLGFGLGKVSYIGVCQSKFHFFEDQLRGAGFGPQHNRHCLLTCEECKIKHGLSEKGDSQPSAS
UniProt Q15691: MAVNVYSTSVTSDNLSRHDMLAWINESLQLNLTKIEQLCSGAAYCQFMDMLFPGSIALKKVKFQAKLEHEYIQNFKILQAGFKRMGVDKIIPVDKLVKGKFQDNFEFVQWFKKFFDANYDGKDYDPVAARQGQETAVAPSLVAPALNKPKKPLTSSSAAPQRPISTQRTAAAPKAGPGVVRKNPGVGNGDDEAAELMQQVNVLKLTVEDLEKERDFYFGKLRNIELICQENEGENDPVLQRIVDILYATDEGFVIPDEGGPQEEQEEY
UniProt Q15393: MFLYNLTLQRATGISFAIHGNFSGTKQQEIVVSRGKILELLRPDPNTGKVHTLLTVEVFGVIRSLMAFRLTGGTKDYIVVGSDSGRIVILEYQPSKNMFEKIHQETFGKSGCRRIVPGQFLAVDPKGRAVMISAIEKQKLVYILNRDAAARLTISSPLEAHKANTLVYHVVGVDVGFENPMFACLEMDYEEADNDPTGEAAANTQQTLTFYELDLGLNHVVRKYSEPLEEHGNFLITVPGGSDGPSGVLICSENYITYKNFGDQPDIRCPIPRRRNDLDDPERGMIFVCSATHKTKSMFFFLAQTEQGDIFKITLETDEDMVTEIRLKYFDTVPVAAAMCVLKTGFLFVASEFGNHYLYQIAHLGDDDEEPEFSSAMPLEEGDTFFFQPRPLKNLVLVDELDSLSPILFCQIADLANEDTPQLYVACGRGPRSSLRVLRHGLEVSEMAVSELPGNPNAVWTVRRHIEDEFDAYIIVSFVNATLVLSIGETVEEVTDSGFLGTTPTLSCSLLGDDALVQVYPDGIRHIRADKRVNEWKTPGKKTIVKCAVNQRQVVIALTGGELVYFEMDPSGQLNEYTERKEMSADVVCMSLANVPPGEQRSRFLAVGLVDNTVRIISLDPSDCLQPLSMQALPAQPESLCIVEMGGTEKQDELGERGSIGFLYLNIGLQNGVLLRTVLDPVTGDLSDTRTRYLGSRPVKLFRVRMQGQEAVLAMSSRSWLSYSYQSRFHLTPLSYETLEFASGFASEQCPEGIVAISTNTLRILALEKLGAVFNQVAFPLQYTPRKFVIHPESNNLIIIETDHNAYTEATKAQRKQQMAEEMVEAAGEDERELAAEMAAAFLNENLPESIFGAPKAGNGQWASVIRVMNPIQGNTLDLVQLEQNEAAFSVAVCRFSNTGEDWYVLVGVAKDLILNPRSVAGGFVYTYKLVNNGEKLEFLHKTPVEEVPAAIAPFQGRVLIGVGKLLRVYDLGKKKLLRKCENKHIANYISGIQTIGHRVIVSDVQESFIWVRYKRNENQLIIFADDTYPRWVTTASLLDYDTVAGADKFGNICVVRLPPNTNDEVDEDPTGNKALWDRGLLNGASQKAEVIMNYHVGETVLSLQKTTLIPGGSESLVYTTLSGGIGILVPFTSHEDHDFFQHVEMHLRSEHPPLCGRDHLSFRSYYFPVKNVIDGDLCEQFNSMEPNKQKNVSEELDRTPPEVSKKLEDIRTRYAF
UniProt Q3SXM5: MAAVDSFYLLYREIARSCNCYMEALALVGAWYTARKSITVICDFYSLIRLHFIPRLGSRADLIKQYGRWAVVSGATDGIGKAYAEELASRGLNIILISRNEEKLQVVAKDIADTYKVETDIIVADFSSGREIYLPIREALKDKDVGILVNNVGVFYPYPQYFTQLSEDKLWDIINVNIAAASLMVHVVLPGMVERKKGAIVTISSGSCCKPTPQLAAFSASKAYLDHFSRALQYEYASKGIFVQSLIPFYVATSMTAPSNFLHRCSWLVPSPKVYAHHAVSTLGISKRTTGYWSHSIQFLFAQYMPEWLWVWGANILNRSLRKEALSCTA
UniProt Q16576, whole entry, looked up: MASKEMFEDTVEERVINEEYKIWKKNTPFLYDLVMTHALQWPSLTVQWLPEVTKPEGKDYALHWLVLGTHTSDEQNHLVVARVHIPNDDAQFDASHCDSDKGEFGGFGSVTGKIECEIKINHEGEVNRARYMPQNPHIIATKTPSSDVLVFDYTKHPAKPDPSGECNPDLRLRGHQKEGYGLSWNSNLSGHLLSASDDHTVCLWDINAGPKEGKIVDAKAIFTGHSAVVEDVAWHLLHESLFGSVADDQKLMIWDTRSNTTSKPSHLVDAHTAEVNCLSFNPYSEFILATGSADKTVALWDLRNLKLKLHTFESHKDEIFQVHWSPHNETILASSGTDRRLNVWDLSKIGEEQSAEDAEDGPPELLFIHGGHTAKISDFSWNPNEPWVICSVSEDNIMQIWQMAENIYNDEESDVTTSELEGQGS
UniProt Q15796, whole entry, looked up: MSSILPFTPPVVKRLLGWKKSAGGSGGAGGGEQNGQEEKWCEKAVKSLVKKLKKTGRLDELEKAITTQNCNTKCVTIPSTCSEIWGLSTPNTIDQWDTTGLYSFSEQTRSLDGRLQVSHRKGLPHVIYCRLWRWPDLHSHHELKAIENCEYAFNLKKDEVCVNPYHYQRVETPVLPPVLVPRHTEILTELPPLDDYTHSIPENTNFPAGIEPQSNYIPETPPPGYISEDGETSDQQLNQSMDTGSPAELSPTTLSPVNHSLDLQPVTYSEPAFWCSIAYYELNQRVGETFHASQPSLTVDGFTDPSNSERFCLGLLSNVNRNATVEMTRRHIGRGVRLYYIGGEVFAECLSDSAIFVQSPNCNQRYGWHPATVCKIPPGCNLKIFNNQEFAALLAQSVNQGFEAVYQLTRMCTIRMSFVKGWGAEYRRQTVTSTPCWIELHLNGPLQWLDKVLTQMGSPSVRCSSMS
UniProt Q17RN3: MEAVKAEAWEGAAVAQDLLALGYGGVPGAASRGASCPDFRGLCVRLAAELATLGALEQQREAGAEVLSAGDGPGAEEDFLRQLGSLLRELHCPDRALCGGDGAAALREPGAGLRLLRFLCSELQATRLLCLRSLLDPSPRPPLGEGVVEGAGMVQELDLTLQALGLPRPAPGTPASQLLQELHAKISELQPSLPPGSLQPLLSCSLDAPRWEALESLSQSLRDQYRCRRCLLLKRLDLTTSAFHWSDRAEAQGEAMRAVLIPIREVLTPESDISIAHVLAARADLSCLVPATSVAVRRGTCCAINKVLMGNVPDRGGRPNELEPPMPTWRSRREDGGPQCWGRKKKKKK
UniProt Q15365, whole entry, looked up: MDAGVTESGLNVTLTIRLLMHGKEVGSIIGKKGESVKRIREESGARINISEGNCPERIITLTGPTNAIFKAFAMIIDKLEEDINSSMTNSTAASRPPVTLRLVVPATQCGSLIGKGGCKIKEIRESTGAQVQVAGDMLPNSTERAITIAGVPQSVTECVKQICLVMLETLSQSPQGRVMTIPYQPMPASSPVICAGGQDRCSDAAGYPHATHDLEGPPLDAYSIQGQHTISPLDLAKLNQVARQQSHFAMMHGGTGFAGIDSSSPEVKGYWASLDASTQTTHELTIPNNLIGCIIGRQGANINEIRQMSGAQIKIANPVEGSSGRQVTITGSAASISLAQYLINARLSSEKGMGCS
UniProt Q15102: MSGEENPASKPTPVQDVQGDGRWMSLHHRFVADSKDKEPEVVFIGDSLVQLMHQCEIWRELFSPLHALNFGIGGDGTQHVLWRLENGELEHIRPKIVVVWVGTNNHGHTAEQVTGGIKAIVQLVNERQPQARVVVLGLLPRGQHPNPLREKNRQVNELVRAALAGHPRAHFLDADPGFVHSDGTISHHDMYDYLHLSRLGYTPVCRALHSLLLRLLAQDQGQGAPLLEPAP
UniProt Q4ZIN3: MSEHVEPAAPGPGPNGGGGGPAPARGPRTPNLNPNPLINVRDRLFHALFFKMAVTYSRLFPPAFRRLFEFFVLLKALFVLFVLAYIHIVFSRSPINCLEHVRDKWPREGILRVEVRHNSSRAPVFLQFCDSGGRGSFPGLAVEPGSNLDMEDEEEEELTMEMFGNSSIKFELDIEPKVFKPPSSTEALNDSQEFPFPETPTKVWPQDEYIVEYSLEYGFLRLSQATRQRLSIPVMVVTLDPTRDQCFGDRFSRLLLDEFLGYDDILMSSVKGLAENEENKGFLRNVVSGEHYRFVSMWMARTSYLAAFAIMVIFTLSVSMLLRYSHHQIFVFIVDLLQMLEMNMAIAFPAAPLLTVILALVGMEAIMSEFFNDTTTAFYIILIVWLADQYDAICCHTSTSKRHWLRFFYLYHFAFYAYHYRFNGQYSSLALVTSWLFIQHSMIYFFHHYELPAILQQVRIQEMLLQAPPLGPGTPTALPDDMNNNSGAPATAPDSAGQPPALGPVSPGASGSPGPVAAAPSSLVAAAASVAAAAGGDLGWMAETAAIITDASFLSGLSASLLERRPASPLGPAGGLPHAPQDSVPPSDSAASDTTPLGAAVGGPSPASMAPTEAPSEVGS
UniProt Q15185: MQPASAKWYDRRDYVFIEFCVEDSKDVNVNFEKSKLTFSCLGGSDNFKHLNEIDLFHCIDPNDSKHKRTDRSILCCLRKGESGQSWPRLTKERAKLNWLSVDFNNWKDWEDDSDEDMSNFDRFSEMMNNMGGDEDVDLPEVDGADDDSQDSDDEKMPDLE
UniProt Q2TAL8: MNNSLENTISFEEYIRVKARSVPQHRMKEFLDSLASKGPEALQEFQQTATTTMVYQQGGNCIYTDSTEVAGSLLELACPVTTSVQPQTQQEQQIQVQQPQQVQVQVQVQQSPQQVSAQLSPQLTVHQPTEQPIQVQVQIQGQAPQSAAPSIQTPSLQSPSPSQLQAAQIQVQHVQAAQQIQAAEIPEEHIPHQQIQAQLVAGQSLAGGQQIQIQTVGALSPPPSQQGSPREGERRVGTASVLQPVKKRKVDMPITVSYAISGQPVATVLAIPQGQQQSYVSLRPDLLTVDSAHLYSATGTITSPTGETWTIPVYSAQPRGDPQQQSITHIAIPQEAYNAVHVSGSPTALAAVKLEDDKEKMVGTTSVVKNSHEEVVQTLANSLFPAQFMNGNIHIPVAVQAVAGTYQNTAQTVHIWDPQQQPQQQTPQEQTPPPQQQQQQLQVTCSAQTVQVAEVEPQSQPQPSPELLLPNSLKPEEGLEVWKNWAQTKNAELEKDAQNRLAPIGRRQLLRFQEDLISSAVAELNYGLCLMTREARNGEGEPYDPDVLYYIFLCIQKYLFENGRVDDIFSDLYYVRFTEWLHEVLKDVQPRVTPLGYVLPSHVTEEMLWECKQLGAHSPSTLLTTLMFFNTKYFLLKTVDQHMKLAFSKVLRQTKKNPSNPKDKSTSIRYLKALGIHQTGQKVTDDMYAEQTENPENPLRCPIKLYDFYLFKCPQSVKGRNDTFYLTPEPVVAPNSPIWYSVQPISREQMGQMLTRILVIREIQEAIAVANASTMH
UniProt Q15181: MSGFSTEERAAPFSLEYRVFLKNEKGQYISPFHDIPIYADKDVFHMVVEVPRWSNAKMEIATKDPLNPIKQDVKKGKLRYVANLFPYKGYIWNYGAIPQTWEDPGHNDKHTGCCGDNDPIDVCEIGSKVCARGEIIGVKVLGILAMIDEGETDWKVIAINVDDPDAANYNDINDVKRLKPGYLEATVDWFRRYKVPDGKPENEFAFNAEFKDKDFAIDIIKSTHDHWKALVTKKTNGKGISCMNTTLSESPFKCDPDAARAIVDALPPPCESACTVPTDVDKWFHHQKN
UniProt Q15024, whole entry: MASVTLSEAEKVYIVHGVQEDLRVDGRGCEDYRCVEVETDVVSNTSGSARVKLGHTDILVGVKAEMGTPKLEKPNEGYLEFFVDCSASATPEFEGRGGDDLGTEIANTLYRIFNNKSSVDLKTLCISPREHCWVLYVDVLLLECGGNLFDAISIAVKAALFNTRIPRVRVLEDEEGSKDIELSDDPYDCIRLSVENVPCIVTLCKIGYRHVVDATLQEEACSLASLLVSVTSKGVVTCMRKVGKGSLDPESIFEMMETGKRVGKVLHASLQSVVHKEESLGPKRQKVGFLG

log2 ratio of iodoacetamide-alkyne labeling, inactive:
OCIAD2 C27 (UniProt Q56VL3) 0.293, MAPRE1 C228 (UniProt Q15691) 0.352, SF3B3 C1156 (UniProt Q15393) 0.0525, HSDL1 C328 (UniProt Q3SXM5) 0.239, RBBP7 C116 (UniProt Q16576) -0.0166, TRIP11 C212 (UniProt Q15643) 0.0893, SMAD2 C41 (UniProt Q15796) 0.325, FAM98C C287 (UniProt Q17RN3) 0.171, UniProt Q15365_C201 0.0112, PAFAH1B3 C55 (UniProt Q15102) -0.0918, UniProt Q4ZIN3_C129 0.131, PTGES3 C40 (UniProt Q15185) 0.00949, TBC1D10B C590 (UniProt Q4KMP7) 0.102, QRICH1 C701 (UniProt Q2TAL8) 0.496, PPA1 C114 (UniProt Q15181) 0.102, EXOSC7 C85 (UniProt Q15024) 0.107

Reference: the supplement of paper PMC11006884
